Assay results reported in US12527768B2, “Compositions comprising an anti-inflammatory drug and a dicer activator for use in the treatment of neuronal diseases” (NeuroSense Therapeutics Ltd., priority 2017, dated 2026).
At least one structure is not confirmed: it was looked up by name or label, or the drawing left a doubt.

What was measured:
[1] = test system: SOD1 G93R mutant zebrafish larvae; assay: Behavioral analysis (DanioVision): locomotor activity, distance moved; assay type: in vivo, zebrafish (Danio rerio); settings: all Celecoxib doses tested
Description: Treatment protocol SOD1 G93R mutant or WT fish were collected and raised according to accepted and approved protocols, see Westerfield M. The Zebrafish Book: a Guide for the Laboratory Use of Zebrafish (Danio rerio) 2000, incorporated herein as reference. Larvae's morphology was observed (heart rate, overall morphology and behavior) at each day.
Two-hundred and forty (240) larvae were selected from the same laying batch to be introduced to three distinct treatments and a control (n=60 per each treatment). […]
Behavioral analysis DanioVision™, an automated high-throughput tracking system of zebrafish larvae from Noldus Information Technology (Wageningen, the Netherlands), including control of light and dark conditions was used for the measurements and analysis of the results. […] The distance each larvae moved in mm was calculated from the x,y position and averaged per time bin of 1 minute (average of 1800 measurements per each 1 minute). The behavioral profile was measured in 3 phases according to changes in environment that we applied, to introduce additional muscle and neurological stress. Spontaneous swimming, light/dark challenge (opto-kinetic response) and recovery from challenge behaviors were recorded and analyzed. […]

ALS patients = settings: clinical trial; cited from earlier work

Cc1ccc(-c2cc(C(F)(F)F)nn2-c2ccc(S(N)(=O)=O)cc2)cc1 [Celecoxib]
efficacy on swimming behavior, all concentrations [1]: no substantial efficacy | effect on ALS disease progression (ALS patients): did not find a protective effect
